Data from PMC3241690.
No constants are given. Whether binding was seen depends on the method and setting. Binding seen in cells or lysates may run through a third protein. Some entries that bind do so weakly or less than the wild type.

The chains behind the UniProt entries cited, without tags or fusion partners.
UniProt P70255: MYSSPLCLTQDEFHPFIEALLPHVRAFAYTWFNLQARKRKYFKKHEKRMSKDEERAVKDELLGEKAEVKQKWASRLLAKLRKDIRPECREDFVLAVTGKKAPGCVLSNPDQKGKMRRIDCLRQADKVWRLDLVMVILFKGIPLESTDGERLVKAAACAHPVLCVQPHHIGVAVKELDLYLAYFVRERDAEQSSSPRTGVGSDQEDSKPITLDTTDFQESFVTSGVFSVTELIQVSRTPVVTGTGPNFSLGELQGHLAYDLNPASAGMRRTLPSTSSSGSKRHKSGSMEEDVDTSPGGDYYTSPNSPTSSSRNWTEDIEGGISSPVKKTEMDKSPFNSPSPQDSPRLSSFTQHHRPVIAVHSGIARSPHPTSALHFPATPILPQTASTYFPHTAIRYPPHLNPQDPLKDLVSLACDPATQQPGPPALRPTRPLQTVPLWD
UniProt Q8BUN5: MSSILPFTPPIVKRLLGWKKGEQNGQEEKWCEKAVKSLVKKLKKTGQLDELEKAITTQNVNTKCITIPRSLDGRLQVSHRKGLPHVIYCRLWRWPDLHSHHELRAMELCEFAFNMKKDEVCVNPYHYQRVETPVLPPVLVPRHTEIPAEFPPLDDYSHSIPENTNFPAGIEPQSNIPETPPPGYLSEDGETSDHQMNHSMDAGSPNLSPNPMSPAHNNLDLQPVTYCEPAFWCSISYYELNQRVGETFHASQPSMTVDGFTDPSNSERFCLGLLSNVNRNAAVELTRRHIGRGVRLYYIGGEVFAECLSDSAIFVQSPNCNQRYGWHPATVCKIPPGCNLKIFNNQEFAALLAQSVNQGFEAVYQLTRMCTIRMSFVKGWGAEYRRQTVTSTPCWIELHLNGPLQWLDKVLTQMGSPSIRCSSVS
UniProt Q9HAU4: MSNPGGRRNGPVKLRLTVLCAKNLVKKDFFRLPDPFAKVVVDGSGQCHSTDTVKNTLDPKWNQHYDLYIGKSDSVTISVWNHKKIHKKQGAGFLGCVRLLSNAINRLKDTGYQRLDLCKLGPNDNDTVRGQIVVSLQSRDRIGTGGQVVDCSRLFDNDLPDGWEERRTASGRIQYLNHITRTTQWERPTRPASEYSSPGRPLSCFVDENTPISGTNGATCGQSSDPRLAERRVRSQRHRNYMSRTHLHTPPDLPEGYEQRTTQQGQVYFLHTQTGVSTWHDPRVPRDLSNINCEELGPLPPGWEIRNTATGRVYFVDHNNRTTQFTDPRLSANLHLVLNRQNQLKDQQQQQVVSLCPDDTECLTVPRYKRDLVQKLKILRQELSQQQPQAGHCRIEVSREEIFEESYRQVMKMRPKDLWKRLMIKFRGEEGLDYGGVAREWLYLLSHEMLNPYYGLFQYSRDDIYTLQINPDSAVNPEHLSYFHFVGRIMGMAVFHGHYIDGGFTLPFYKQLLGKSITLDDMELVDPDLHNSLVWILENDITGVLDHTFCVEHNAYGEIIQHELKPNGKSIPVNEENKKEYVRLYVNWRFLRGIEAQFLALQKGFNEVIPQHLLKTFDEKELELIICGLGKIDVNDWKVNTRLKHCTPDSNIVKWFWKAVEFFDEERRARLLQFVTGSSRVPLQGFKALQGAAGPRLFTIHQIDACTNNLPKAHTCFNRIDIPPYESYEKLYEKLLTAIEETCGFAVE
UniProt Q9HCE7: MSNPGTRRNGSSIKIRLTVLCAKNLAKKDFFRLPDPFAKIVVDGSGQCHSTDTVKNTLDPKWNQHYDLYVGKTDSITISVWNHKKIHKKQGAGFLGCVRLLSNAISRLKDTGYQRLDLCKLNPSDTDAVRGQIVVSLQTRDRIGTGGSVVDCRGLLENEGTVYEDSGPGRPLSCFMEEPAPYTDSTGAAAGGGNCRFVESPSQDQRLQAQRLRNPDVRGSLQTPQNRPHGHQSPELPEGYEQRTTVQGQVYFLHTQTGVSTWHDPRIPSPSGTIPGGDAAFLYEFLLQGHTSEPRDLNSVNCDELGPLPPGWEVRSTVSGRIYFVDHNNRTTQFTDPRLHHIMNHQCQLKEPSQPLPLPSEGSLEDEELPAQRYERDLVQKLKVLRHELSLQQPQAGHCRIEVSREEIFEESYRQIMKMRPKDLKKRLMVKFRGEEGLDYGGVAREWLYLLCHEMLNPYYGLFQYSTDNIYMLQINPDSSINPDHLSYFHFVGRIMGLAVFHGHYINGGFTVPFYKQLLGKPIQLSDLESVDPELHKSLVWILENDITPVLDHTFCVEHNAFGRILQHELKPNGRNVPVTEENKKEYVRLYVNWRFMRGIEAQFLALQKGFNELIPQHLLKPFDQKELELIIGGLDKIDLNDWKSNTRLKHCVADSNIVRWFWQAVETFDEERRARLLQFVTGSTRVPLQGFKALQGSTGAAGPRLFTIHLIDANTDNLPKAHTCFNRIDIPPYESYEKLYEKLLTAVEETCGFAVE
UniProt Q9CUN6: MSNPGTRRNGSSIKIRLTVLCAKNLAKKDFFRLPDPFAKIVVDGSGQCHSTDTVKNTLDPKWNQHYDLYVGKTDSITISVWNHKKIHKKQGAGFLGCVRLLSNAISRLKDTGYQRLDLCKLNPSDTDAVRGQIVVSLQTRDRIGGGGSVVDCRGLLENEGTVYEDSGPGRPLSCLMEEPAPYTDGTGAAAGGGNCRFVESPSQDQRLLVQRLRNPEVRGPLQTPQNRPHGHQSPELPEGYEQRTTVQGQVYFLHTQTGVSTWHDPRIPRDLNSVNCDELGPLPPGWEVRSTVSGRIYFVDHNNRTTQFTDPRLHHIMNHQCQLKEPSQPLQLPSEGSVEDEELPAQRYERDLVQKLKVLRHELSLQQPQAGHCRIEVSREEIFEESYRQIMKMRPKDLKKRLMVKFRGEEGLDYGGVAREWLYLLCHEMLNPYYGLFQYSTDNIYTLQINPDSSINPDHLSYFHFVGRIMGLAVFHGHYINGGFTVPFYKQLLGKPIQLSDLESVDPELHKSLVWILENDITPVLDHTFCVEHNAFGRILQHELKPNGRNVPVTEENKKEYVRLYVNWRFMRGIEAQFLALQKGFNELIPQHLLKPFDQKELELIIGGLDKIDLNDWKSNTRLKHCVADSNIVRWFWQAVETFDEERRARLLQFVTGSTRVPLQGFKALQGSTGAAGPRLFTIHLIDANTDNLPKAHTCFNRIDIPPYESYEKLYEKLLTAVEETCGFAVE
UniProt P84022: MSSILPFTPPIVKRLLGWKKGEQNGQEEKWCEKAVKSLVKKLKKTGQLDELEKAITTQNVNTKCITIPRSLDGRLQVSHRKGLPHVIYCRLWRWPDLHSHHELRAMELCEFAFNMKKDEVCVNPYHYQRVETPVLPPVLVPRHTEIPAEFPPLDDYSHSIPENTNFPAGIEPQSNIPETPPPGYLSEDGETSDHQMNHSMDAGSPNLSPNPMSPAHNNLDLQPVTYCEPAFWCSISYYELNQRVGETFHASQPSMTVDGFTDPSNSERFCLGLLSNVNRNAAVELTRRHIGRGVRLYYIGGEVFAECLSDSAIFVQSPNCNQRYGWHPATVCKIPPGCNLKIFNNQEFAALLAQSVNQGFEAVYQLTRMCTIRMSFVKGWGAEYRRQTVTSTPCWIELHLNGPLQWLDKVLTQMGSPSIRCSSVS

How the values were obtained:
[1] = molecular target: Endogenous NFI-C (nuclear factor I-C) of MDPC-23 cells (mouse (endogenous in MDPC-23)) (UniProt P70255); assay: co-IP; endogenous proteins; MDPC-23 cells with or without TGF-β1 (10 ng/ml) in the presence of MG132 (10 µM) for 1 hr; cytoplasmic and nuclear fractions; NFI-C immunoprecipitates blotted with anti-pSmad3
[2] = molecular target: Phosphorylated HA-NFI-C (ERK-phosphorylated, from cells co-transfected with MEK-CA) (UniProt P70255); assay: pull-down; in vitro binding assay: HA-NFI-C from HEK293T (with MEK-CA) held by anti-HA on Protein A/G beads, with or without lambda protein phosphatase (30°C, 1 hr), incubated with HEK293T lysates expressing FLAG-tagged Smurf1 or Smurf2 at 4°C for 2 hr; blot; only the target purified
[3] = molecular target: HA-tagged NFI-C (nuclear factor I-C) (UniProt P70255); assay: co-IP; HEK293T co-transfected for 48 hr with HA-tagged NFI-C and a FLAG-tagged partner, with or without TGF-β1 (10 ng/ml, 1 hr); 500 µg precleared extract, anti-HA overnight at 4°C, Protein A/G beads; blot with anti-FLAG and anti-HA
[4] = molecular target: Endogenous NFI-C (nuclear factor I-C) of MDPC-23 cells (mouse (endogenous in MDPC-23)) (UniProt P70255); assay: co-IP; endogenous proteins; MDPC-23 whole cell lysates, untreated or TGF-β1 (10 ng/ml, 1 hr), with or without U0126 (10 µM); also FGF, EGF, p38 and JNK inhibitors (data not shown); NFI-C immunoprecipitates blotted with anti-Smurf1 or anti-Smurf2

binding [1] | binding [2] | binding [3] | binding [4] | Substance
binds |  |  |  | Endogenous phosphorylated Smad3 (p-Smad3) of MDPC-23 cells (from UniProt Q8BUN5 1-425)
 | binds | binds |  | FLAG-tagged Smurf2 (from UniProt Q9HAU4 1-748) (enzyme)
 | binds | binds |  | FLAG-tagged Smurf1 (from UniProt Q9HCE7 1-757) (enzyme)
 |  |  | binds | Endogenous Smurf1 of MDPC-23 cells (from UniProt Q9CUN6 1-731) (enzyme)
 |  | binds |  | FLAG-tagged Smad3 (from UniProt P84022 1-425)
